Measurements reported in publication PMC4709261, “Guanylate cyclase 1 relies on rhodopsin for intracellular stability and ciliary trafficking” (eLife, 2015).
No constants are given. Whether binding was seen depends on the method and setting. In cells and extracts the contact can be indirect.

The chains behind the UniProt entries cited, without tags or fusion partners. Residues count along the entry.
UniProt P52785, residues 55-1108: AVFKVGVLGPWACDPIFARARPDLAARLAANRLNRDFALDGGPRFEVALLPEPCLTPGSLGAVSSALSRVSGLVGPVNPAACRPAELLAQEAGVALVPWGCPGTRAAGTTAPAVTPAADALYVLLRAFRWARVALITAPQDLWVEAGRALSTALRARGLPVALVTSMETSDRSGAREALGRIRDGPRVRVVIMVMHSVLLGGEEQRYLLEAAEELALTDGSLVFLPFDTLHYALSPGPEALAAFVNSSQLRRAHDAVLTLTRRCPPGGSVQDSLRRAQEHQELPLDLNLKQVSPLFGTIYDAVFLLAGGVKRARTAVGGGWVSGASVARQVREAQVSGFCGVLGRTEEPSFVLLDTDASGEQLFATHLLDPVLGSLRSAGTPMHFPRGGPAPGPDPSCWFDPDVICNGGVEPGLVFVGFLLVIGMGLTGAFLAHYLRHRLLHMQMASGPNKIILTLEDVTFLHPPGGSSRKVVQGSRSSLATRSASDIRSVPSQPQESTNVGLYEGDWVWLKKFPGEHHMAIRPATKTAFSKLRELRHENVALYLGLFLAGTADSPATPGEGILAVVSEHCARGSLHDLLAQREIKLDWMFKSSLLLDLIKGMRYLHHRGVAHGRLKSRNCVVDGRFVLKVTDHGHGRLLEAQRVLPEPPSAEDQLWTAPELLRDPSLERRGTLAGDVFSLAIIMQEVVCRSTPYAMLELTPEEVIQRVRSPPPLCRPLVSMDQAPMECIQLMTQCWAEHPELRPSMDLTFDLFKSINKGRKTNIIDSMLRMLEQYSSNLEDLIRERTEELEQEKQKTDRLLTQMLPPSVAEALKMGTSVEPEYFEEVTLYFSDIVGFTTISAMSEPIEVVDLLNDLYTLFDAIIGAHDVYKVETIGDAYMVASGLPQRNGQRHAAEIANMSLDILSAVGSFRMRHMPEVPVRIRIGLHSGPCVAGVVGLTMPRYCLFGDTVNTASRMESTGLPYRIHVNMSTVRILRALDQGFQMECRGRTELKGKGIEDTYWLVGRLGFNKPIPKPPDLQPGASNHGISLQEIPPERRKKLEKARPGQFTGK
UniProt O54946: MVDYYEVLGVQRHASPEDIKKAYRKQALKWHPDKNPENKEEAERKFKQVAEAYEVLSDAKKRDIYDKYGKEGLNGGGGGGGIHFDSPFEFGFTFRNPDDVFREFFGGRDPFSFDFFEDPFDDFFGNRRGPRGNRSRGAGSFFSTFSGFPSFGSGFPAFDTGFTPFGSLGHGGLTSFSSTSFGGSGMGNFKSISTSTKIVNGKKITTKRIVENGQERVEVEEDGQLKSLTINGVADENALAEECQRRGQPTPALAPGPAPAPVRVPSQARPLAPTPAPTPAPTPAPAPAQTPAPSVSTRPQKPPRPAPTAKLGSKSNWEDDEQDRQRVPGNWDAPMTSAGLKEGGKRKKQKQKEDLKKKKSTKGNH

T1: rhodopsin (mouse (endogenous in retina)), P15409
T1 chain: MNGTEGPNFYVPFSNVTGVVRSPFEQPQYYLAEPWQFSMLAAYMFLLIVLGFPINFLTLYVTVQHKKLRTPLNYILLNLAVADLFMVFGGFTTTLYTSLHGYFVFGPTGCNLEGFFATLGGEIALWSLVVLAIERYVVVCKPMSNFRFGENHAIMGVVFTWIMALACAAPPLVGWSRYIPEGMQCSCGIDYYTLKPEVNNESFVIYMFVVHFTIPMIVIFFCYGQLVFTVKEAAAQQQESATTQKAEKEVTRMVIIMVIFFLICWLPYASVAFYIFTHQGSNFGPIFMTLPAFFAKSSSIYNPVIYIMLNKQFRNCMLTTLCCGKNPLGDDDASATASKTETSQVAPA


Key:
[1] = biological target: retinal guanylate cyclase 1 (mouse (endogenous in retina)) (UniProt P52785); assay: co-IP; WT (C57BL/6J) mouse retinal membranes solubilized in the mild detergent dodecyl maltoside in PBS; anti-rhodopsin antibody 1D4 overnight at 4°C, protein A/G magnetic beads; eluate analysed by Western blotting; controls: non-immune mouse IgG, 1D4 epitope-blocking peptide (2 mM)
[2] = biological target: rhodopsin (mouse (endogenous in retina)) (UniProt P15409); assay: as above
[3] = biological target: T1, rhodopsin (mouse (endogenous in …)); assay: as above; conditions: remark: other sources report otherwise
[4] = biological target: T1, rhodopsin (mouse (endogenous in …)); assay: co-IP; as a1, but retinal membranes solubilized in Triton X-100 (for GC-1 also at an increased concentration of dodecyl maltoside); anti-rhodopsin antibody 1D4, protein A/G beads; Western blotting; conditions: remark: other sources report otherwise

Row | Molecule | binding [1] | binding [2] | binding [3] | binding [4]
1 | DnaJB6 (from UniProt O54946 1-365) | no binding | no binding |  | 
2 | peripherin, P15499 1-346 (protein) MALLKVKFDQKKRVKLAQGLWLMNWLSVLAGIVLFSLGLFLKIELRKRSEVMNNSESHFVPNSLIGVGVLSCVFNSLAGKICYDALDPAKYAKWKPWLKPYLAVCIFFNVILFLVALCCFLLRGSLESTLAYGLKNGMKYYRDTDTPGRCFMKKTIDMLQIEFKCCGNNGFRDWFEIQWISNRYLDFSSKEVKDRIKSNVDGRYLVDGVPFSCCNPSSPRPCIQYQLTNNSAHYSYDHQTEELNLWLRGCRAALLNYYSSLMNSMGVVTLLVWLFEVSITAGLRYLHTALESVSNPEDPECESEGWLLEKSVPETWKAFLESFKKLGKSNQVEAEGADAGPAPEAG |  |  | no binding | no binding
